Measured values published in patent US9708289B2, “Imidazole diketone compound and use thereof” (HINOVA PHARMACEUTICALS INC., priority 2013, dated 2017).
Some entries share one result that the patent states for a list of compounds.

Experiment: Evaluation of pharmacokinetics in mice
Type: in vivo, Kunming mice (KM mice)
Conditions: 10 mg/kg intragastric
Description: 10 mg/kg compound 10, 14, 17, 20 were intragastrically administered to Healthy Kunming mice (KM mice), male, weighing 18-20 g. Compounds were dissolved in DMSO:PEG400:H2O 1:5:14. The volume of administration was 10 mL/kg. Before testing, the mice fasted for 12 h and drunk water ad libitum. Then, the mice were fed together at 2 h after administration. 0.3 mL of blood were took from 3 mice through retrobulbar venous plexus at 0.5, 1.0, 2.0, 4.0, 6.0 and 24 h after administration, placed in heparinized tubes, and centrifuged for 5 min at 11000 rpm. The plasma was separated and frozen in a refrigerator at −20° C. 100 uL of serum was transferred with a pipettor into a clean plastic centrifuge tube marked with compound's name and time point, and diluted with acetonitrile (CH3CN) and centrifuged. The concentration of drug was analyzed by LC-MS. Serum was stored at −80° C. before analysis. The pharmacokinetic parameters of deuterated compound (compound 14, 17, and 20) and undeuterated compound (compound 10) were show in following table.

Compound: [2H]C([2H])([2H])NC(=O)c1ccc(N2C(=S)N(c3cnc(C#N)c(C(F)(F)F)c3)C(=O)C23CCC3)cc1F [Compound 14, 4-[7-(6-cyano-5-trifluoromethyl-3-pyridyl)-8-oxo-6-thio-5,7-diazaspiro [3, 4]-5-octyl]-2-fluoro-N-trideuterated methyl-benzamide]
- AUC increase compared with undeuterated compound 10: at least 20%

Compound: [2H]c1cc(C(=O)NC([2H])([2H])[2H])c(F)c([2H])c1N1C(=S)N(c2cnc(C#N)c(C(F)(F)F)c2)C(=O)C12CCC2 [Compound 20, 4-[7-(6-cyano-5-trifluoromethyl-3-pyridyl)-8-oxo-6-thio-5,7-diazaspiro[3,4]-5-octyl]-3,5-bideuterium-2-fluoro-N-trideuteromethyl-benzamide]
- AUC increase compared with undeuterated compound 10: at least 20%
